Results as given in doi:10.1101/2022.05.13.491857.
No constants are given. Whether binding was seen depends on the method and setting. For some of these results: In cells and extracts the contact can be indirect. Some results given as binding are weak or reduced against the parent protein; the word gives no strength.

By UniProt entry, the sequences of proteins in these tests, tags left out. Where a name states a change or a piece, a line headed by the entry shows the natural chain unless it says otherwise.
UniProt Q7TMB8: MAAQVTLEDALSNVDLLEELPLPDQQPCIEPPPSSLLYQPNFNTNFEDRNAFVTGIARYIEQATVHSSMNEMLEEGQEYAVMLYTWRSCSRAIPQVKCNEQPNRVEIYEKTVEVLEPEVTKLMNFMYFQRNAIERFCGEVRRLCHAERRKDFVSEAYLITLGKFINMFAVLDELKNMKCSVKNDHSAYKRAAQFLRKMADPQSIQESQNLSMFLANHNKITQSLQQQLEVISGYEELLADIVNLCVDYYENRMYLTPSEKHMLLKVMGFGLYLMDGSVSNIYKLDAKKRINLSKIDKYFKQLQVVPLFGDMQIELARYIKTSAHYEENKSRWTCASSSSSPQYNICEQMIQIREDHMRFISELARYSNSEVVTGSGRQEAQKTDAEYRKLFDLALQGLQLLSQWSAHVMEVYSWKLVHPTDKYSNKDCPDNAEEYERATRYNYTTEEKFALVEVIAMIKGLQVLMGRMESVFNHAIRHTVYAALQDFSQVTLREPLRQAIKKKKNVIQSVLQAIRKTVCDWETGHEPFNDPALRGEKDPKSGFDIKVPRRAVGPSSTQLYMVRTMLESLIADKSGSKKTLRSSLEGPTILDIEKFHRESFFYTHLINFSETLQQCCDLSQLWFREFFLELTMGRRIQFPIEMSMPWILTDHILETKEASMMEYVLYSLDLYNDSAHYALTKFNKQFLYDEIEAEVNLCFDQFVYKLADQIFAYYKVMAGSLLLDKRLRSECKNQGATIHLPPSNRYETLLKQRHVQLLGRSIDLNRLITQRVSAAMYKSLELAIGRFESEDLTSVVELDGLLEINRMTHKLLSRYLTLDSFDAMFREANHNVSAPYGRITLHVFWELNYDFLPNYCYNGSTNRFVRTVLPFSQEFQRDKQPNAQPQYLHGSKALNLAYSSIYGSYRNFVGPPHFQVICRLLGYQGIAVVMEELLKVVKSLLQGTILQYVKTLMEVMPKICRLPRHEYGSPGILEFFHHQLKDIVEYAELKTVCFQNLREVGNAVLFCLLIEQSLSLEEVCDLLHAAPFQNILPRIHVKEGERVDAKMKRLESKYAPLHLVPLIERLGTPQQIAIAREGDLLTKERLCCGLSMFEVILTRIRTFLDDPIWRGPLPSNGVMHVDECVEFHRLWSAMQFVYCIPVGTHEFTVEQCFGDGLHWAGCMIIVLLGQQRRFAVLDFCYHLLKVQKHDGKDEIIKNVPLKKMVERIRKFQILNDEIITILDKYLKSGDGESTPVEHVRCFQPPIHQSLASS
UniProt P84085: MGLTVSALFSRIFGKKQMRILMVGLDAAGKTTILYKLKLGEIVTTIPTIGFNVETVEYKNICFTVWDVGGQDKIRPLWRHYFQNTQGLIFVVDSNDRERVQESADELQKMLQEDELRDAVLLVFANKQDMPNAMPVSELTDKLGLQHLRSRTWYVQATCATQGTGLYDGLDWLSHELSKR
UniProt P62330: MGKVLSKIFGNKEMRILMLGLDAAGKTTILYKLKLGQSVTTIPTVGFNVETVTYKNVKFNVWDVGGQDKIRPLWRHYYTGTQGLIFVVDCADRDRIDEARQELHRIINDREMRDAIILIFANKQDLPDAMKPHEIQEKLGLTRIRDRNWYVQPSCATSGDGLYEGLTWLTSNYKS
UniProt Q8CBW3: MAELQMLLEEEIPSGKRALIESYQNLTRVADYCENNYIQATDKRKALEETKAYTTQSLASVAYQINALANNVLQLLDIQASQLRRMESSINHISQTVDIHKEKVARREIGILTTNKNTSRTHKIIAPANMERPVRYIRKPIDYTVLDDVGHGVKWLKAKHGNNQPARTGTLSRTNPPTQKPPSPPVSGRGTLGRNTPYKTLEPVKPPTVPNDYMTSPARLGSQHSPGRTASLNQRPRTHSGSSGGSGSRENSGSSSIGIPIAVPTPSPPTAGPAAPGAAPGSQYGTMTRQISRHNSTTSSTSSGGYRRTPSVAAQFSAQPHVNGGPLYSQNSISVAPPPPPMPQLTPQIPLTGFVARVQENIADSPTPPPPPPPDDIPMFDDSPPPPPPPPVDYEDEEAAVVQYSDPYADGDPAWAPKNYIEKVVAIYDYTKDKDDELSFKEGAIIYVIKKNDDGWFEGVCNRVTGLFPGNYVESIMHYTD
UniProt Q8BH43: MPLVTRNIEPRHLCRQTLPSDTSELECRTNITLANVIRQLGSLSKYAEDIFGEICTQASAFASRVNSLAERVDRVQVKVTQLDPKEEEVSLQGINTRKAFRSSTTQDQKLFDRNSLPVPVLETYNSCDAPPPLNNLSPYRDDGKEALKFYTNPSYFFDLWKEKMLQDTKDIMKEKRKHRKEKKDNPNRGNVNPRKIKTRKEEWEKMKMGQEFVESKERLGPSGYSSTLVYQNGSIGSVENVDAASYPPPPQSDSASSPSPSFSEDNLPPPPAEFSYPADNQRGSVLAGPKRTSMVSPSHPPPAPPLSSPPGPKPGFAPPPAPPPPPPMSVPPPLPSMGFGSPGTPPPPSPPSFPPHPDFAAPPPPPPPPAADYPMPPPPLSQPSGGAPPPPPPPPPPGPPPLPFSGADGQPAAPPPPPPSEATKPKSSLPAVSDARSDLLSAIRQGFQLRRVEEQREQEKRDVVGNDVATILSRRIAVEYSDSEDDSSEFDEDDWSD
UniProt Q7L576: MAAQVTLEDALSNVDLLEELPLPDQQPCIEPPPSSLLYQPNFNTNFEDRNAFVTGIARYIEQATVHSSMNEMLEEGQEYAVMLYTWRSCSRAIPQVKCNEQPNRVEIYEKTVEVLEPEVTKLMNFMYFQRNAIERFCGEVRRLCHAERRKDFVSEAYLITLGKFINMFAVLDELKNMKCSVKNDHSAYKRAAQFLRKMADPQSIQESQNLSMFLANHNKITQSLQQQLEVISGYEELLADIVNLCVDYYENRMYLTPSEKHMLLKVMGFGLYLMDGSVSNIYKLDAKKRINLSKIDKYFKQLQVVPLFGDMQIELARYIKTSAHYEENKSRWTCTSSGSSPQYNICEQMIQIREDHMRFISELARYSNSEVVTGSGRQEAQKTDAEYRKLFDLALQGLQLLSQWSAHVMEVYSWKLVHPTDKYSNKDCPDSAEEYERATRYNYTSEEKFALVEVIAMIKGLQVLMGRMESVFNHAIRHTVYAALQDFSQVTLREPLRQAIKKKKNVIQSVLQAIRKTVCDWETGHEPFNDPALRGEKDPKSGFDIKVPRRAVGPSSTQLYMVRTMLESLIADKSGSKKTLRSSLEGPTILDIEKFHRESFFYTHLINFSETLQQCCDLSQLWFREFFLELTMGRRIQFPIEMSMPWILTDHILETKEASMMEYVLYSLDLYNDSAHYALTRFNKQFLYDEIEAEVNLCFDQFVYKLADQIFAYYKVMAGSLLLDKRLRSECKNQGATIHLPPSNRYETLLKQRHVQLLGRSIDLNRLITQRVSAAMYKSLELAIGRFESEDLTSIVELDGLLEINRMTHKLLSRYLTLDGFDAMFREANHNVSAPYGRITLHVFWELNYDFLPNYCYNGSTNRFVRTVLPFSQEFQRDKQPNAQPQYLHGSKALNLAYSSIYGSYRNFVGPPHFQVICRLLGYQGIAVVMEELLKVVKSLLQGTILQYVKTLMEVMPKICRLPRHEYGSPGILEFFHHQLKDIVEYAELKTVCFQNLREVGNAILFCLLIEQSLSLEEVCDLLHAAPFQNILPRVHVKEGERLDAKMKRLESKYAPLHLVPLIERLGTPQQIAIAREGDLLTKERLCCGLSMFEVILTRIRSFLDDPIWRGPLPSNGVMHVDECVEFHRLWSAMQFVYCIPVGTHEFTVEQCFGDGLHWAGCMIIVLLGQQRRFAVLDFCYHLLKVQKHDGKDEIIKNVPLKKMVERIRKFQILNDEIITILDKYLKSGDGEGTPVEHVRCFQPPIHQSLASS

Columns and labels:
[1] = target: EGFP-Sra1 (WT) (murine) (UniProt Q7TMB8); test: co-IP
[2] = target: EGFP-Sra1 ΔD (Sra1^Y967A) (murine) (UniProt Q7TMB8); test: co-IP
[3] = target: EGFP-Sra1 ΔM #1 (Sra1^Y986A/E988A) (murine) (UniProt Q7TMB8); test: co-IP
[4] = target: EGFP-Sra1 ΔM #2 (Sra1^Y948A/T951A) (murine) (UniProt Q7TMB8); test: co-IP
[5] = target: GST-Arf5 (UniProt P84085); test: pull-down
[6] = target: GST-Arf6 (UniProt P62330); test: pull-down

Measured: binding

Abi1 (endogenous, B16-F1) (from UniProt Q8CBW3 1-481)
binds: [1] | [2] | [3] | [4]

WAVE2 (endogenous, B16-F1) (from UniProt Q8BH43 1-497)
binds: [1] | [2] | [3] | [4]

ΔWRC230 (from UniProt Q7L576 1-1253; Q9Y2A7 1-1128; Q92558 1-230; Q9NYB9 1-158; Q8WUW1 1-75) (complex)
binds: [5] | [6]
